Experimental data from publication PMC8222256.
Results are given in words; binding and its absence hold for the method and conditions named. Binding seen in cells or lysates may run through a third protein. Some binding calls cover weakened binding; strength is not graded here.

Protein sequences, listed by entry. Tags and fused reporters are not part of them. Lines headed by an entry give the natural chain unless they say otherwise; changes in a name come on top. Chains listed by the source or under a name are the forms on record and can include a tag or linker.
UniProt Q61687: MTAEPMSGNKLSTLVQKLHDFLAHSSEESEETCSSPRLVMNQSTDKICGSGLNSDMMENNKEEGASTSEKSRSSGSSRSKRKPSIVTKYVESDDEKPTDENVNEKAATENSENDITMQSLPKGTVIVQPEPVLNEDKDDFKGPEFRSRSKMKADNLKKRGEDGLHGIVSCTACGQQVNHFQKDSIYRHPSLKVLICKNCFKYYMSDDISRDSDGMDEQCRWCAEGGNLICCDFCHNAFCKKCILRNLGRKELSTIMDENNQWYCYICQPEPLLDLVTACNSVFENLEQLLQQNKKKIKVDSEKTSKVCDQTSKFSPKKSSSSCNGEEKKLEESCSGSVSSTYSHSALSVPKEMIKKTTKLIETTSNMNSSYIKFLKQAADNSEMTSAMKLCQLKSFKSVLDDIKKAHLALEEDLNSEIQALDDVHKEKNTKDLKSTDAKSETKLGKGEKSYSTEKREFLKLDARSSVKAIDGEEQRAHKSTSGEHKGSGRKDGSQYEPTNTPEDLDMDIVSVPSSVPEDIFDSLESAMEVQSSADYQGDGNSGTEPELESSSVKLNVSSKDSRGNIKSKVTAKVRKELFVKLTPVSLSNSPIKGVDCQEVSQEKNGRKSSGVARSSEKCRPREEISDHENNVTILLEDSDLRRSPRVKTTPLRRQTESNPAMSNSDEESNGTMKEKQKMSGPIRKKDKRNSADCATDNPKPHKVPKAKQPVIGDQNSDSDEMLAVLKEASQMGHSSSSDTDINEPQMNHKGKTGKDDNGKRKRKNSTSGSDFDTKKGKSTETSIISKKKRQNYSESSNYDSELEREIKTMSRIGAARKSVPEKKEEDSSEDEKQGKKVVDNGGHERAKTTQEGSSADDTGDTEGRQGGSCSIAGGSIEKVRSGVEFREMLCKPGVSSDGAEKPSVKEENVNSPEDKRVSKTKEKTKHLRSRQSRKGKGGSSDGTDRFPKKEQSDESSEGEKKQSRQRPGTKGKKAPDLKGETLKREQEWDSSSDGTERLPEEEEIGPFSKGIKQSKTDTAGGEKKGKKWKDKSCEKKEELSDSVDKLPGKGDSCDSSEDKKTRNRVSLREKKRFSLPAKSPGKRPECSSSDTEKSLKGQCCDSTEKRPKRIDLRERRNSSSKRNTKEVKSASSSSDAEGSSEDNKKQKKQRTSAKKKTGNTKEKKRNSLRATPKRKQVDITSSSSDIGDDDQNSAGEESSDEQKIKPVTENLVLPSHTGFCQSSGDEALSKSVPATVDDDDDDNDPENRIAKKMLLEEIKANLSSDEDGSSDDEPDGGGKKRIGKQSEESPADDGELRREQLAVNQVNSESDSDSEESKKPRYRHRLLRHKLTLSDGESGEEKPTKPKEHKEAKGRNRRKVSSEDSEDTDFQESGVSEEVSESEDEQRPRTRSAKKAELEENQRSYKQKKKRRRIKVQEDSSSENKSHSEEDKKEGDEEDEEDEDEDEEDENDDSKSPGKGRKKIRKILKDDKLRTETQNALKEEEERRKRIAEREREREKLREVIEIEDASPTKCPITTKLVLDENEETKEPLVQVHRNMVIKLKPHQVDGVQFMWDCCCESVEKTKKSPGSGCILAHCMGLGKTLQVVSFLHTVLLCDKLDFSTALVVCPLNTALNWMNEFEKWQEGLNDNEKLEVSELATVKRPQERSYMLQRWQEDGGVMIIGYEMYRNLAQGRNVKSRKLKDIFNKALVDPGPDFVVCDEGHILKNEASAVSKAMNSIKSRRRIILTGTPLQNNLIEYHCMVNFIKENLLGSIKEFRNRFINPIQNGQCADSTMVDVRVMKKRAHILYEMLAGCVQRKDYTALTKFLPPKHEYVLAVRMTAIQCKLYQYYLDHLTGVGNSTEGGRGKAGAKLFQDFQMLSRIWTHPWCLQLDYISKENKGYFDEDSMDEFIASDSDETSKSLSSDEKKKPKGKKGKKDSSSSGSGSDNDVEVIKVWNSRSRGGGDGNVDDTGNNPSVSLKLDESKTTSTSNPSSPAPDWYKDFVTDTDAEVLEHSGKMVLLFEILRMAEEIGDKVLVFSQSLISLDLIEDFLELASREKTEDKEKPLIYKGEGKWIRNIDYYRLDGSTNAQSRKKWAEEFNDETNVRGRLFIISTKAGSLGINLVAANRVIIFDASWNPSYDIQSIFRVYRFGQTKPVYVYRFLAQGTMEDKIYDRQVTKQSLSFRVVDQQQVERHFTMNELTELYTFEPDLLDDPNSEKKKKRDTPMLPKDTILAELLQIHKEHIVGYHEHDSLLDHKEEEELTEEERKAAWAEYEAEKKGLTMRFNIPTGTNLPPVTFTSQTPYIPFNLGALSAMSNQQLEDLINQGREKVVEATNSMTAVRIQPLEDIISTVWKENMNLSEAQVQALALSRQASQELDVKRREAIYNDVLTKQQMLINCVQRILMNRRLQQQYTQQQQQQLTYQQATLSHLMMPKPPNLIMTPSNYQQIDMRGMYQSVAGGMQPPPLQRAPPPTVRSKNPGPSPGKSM
HA-tagged ATRX (wild-type) (P46100, form named): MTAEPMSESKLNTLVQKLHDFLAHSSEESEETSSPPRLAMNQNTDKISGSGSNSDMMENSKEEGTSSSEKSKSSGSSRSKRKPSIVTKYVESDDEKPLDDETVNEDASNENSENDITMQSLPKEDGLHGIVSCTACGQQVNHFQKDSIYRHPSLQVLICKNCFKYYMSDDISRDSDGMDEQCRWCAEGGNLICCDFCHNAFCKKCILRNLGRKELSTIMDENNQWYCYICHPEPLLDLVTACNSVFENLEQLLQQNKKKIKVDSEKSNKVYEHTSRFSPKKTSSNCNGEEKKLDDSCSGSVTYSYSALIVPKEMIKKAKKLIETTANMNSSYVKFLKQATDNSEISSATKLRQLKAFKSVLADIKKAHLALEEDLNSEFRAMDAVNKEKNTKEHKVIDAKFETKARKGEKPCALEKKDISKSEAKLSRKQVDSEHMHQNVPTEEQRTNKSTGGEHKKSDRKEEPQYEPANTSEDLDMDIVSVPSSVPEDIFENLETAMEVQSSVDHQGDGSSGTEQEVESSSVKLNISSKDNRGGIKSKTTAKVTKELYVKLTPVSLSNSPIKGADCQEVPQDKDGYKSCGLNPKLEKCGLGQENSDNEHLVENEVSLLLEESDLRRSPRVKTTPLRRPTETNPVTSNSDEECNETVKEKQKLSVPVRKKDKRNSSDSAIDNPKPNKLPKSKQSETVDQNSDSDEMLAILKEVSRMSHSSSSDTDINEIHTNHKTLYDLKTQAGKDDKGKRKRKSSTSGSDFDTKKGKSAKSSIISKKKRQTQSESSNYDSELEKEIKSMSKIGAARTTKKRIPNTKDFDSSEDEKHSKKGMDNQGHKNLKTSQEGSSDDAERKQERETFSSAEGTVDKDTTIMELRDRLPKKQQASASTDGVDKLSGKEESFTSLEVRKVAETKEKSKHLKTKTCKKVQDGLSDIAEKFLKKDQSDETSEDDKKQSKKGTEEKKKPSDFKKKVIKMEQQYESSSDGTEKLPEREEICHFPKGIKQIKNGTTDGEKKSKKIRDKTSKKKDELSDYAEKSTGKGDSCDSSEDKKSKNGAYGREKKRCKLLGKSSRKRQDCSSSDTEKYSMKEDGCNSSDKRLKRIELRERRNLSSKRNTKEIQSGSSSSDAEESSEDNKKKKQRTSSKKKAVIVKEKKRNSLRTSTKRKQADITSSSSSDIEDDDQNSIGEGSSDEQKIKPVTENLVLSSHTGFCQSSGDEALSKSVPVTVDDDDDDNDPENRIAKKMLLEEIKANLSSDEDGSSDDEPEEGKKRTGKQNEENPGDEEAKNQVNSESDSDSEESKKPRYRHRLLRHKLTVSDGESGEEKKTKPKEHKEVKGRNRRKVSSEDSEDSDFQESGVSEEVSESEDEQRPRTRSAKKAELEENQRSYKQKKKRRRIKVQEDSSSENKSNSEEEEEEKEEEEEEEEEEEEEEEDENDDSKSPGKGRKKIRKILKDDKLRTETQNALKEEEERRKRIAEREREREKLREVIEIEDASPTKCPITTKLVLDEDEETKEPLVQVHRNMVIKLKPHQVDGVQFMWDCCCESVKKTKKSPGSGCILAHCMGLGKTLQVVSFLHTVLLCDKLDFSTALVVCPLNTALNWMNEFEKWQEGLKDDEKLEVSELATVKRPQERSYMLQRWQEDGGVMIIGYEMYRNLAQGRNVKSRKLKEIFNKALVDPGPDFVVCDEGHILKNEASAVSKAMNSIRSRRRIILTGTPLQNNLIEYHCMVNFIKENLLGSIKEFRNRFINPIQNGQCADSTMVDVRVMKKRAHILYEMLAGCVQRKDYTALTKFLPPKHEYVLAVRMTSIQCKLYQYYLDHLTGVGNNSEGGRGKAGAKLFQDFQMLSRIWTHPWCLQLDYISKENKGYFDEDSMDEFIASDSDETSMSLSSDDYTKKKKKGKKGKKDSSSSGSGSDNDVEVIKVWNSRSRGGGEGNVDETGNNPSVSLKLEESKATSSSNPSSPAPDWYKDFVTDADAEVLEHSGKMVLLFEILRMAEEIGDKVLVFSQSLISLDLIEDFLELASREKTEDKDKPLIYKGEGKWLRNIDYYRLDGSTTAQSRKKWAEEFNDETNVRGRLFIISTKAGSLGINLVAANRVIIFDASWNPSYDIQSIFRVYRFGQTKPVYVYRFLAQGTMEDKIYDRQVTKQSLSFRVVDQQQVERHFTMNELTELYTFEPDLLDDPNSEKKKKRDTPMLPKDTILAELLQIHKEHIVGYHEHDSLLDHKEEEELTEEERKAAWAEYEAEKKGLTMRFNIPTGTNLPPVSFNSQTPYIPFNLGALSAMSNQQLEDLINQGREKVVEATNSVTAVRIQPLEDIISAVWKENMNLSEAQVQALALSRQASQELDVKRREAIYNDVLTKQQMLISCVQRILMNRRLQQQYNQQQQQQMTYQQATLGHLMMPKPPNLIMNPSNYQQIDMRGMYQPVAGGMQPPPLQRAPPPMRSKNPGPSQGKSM
UniProt O35613: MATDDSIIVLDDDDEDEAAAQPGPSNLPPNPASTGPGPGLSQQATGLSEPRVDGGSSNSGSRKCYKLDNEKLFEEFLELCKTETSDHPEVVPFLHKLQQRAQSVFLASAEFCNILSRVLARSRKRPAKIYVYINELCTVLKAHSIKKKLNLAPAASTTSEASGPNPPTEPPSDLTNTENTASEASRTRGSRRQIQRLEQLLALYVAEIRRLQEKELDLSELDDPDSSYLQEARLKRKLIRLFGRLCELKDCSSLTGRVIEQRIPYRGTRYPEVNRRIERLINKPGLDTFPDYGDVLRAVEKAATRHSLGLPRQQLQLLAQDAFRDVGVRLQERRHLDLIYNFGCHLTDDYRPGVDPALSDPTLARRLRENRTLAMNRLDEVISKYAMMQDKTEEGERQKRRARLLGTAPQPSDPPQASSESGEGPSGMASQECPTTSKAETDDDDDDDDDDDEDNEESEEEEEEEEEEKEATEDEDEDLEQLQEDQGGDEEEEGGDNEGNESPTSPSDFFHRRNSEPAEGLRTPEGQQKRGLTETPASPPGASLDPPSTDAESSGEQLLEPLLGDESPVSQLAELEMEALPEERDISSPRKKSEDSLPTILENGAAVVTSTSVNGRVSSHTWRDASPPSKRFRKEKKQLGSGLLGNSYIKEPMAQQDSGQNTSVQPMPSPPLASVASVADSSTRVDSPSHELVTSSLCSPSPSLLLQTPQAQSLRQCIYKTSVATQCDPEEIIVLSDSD
UniProt P97310: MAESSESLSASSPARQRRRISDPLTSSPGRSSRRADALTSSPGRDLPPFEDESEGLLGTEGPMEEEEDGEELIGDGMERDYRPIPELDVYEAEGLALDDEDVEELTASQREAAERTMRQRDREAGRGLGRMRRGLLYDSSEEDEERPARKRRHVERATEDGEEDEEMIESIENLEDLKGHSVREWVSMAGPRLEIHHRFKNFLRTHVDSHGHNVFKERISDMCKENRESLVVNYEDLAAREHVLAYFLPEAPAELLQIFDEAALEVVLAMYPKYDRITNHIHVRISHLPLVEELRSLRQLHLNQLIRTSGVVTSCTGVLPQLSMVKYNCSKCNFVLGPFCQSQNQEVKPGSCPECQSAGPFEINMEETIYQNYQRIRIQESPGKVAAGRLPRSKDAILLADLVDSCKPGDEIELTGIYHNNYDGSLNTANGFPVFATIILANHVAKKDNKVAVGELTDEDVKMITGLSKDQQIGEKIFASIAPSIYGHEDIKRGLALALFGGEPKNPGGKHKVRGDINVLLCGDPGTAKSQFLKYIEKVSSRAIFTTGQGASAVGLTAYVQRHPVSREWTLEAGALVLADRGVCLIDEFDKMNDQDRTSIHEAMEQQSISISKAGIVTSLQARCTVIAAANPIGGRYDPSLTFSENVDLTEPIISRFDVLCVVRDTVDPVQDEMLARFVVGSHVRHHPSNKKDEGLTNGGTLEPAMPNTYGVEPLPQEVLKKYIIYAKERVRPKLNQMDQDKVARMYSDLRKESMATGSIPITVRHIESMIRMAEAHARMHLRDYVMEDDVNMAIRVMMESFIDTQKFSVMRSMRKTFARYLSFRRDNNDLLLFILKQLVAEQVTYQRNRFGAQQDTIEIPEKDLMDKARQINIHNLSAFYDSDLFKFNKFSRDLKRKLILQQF

Legend:
[1] = target: ATRX (mouse (endogenous in ESCs)) (UniProt Q61687); assay: co-IP; 0.5 mg ESC nuclear extract, 2 μg antibody on Dynabeads Protein A or G, 4 °C, 2 h, washes with 150 mM KCl buffer, immunoblot; wild-type, DAXX KO, HIRA KO, H3.3 KO, H3.3 KO addback and ATRX KO addback ESCs; lysates also treated with ethidium bromide or RNase A
[2] = target: HA-tagged ATRX (wild-type) (human) (UniProt P46100); assay: as above
[3] = target: GFP-tagged ATRX (mouse (endogenous in ESCs)) (UniProt Q61687); assay: co-IP; immunoprecipitation from cell lysates of single ATRX-GFP ESC clones
[4] = target: ATRX (mouse (endogenous in ESCs)) (UniProt Q61687); assay: proximity ligation; fixed and permeabilised mouse ESCs, ATRX and MCM antibodies, Duolink; wild-type, DAXX KO and ATRX KO addback ESCs; ATRX KO ESCs as control
[5] = target: HIRA (mouse (endogenous in ESCs)) (UniProt Q61666); assay: co-IP; 0.5 mg ESC nuclear extract, 2 μg antibody on Dynabeads Protein A or G, 4 °C, 2 h, washes with 150 mM KCl buffer, immunoblot; wild-type, DAXX KO, HIRA KO, H3.3 KO, H3.3 KO addback and ATRX KO addback ESCs; lysates also treated with ethidium bromide or RNase A
[6] = target: HA-tagged ATRX K1562R (human) (UniProt P46100); assay: as above
[7] = target: HA-tagged ATRX L1238A (human) (UniProt P46100); assay: as above
[8] = target: HA-tagged ATRX K1562R (human) (UniProt P46100); assay: proximity ligation; fixed and permeabilised mouse ESCs, ATRX and MCM antibodies, Duolink; wild-type, DAXX KO and ATRX KO addback ESCs; ATRX KO ESCs as control
[9] = target: HA-tagged ATRX L1238A (human) (UniProt P46100); assay: as above

binding [1] | binding [2] | binding [4] | Molecule | further results
binds | binds | – | DAXX (from UniProt O35613 1-739) | binding [3]: binds
binds weakly | – | binds | MCM2 (from UniProt P97310 1-904) | –
binds weakly | – | – | Mcm7 (from UniProt Q61881 1-719) | –
binds weakly | – | binds | MCM4 (protein, UniProt P49717 1-862) MSSPASTPSRRSSRRGRVTPTQSLRSEESRSSPNRRRRGEDSSTGELLPMPTSPGADLQSPPAQNALFSSPPQMHSLAIPLDFDVSSPLTYGTPSSRVEGTPRSGVRGTPVRQRPDLGSARKGLQVDLQSDGAAAEDIVPSEQSLGQKLVIWGTDVNVATCKENFQRFLQCFTDPLAKEEENVGIDITQPLYMQQLGEINITGEPFLNVNCEHIKSFSKNLYRQLISYPQEVIPTFDMAVNEIFFDRYPDSILEHQIQVRPFNALKTKSMRNLNPEDIDQLITISGMVIRTSQLIPEMQEAFFQCQVCAHTTRVEIDRGRIAEPCSCVHCHTTHSMALIHNRSFFSDKQMIKLQESPEDMPAGQTPHTIVLFAHNDLVDKVQPGDRVNVTGIYRAVPIRVNPRVSNVKSVYKTHIDVIHYRKTDAKRLHGLDEEAEQKLFSEKRVKLLKELSRKPDIYERLASALAPSIYEHEDIKKGILLQLFGGTRKDFSHTGRGKFRAEINILLCGDPGTSKSQLLQYVYNLVPRGQYTSGKGSSAVGLTAYVMKDPETRQLVLQTGALVLSDNGICCIDEFDKMNESTRSVLHEVMEQQTLSIAKAGIICQLNARTSVLAAANPIESQWNPKKTTIENIQLPHTLLSRFDLIFLMLDPQDEAYDRRLAHHLVSLYYQSEEQVEEEFLDMAVLKDYIAYAHSTIMPRLSEEASQALIEAYVNMRKIGSSRGMVSAYPRQLESLIRLAEAHAKVRFSNKVEAIDVEEAKRLHREALKQSATDPRTGIVDISILTTGMSATSRKRKEELAEALRKLILSKGKTPALKYQQLFEDIRGQSDTAITKDMFEEALRALADDDFLTVTGKTVRLL | –
– | – | binds | MCM3 (protein, UniProt P25206 1-812) MAGTVVLDDVELREAQRDYLDFLDDEEDQGIYQNKVRELISDNQYRLIVSVNDLRRKNEKRANRLLNNAFEELVAFQRALKDFVASIDATYAKQYEEFYIGLEGSFGSKHVSPRTLTSCFLSCVVCVEGIVTKCSLVRPKVVRSVHYCPATKKTIERRYSDLTTLVAFPSSSVYPTKDEENNPLETEYGLSVYKDHQTITIQEMPEKAPAGQLPRSVDVILDDDLVDKVKPGDRIQVVGTYRCLPGKKGCYTSGTFRTVLIACNVKQMSKDIQPAFSADDIAKIKKFSKTRSKDVFEQLARSLAPSIHGHDYVKKAILCLLLGGVERELENGSHIRGDINILLIGDPSVAKSQLLRYVLCTAPRAIPTTGRGSSGVGLTAAVTTDQETGERRLEAGAMVLADRGVVCIDEFDKMSDMDRTAIHEVMEQGRVTIAKAGIHARLNARCSVLAAANPVYGRYDQYKTPMENIGLQDSLLSRFDLLFIMLDQMDPEQDREISDHVLRMHQYRAPGEQDGDALPLGSSVDILATDDPDFTQDDQQDTRIYEKHDSLLHGTKKKKEKMVSAAFMKKYIHVAKIIKPTLTQESAAYIAEEYSRLRSQDSMSSDTARTSPVTARTLETLIRLATAHAKARMSKTVDLQDAEEAVELVQYAYFKKVLEKEKKRKKASEDESDLEDEEEKSQEDTEQKRKRRKTHAKDGESYDPYDFSEAETQMPQVHTPKTDDSQEKTDDSQETQDSQKVELSEPRLKAFKAALLEVFQEAHEQSVGMLHLTESINRNREEPFSSEEIQACLSRMQDDNQVMVSEGIVFLI | –
binds weakly | binds | binds | Mcm6 (protein, UniProt P97311 1-821) MDLAAAAEPGAGSQHPEVRDEVAEKCQKLFLDFLEEFQGSDGEIKYLQFAEELIRPERNTLVVSFADLEQFNQQLSTTIQEEFYRVYPYLCRALKTFVKDRKEIPFAKDFYVAFQDLPTRHKIRELTSSRIGLLTRISGQVVRTHPVHPELVSGTFLCLDCQTVIKDVEQQFKYTQPNICRNPVCANRKRFLLDTNKSRFVDFQKVRIQETQAELPRGSIPRSLEVILRAEAVESAQAGDRCDFTGALIVVPDVSKLSTPGARAETNSRVSGADGYETEGIRGLRALGVRDLSYRLVFLACHVAPTNPRFGGKELRDEEQTAESIKNQMTVKEWEKVFEMSQDKNLYHNLCTSLFPTIHGNDEVKRGVLLMLFGGVPKTTGEGTSLRGDINVCIVGDPSTAKSQFLKHVDEFSPRAVYTSGKASSAAGLTAAVVRDEESHEFVIEAGALMLADNGVCCIDEFDKMDMRDQVAIHEAMEQQTISITKAGVKATLNARTSILAAANPVSGHYDRSKSLKQNINLSAPIMSRFDLFFILVDECNEVTDYAIARRIVDLHSRIEESIDRVYSLDDIRRYLLFARQFKPKISKESEDFIVEQYKRLRQRDGSGVTKSSWRITVRQLESMIRLSESMARMHCCDEVQPKHVKEAFRLLNKSIIRVETPDVNLDQEEEIQMETDEGQGGVNGHADSPAPVNRFNGSSEDASQETVSKPSLRLGFAEYCRISNLIVLHLRKMEEEEDESALKRSELVNWYLKEIESEIDSEEELINKKTIIEKVVHRLTHYDHVLIELTQAGLKGSSEGSESYEEDPYLVVNPNYLLED | binding [5]: no binding; binding [6]: binds; binding [7]: binds; binding [8]: binds; binding [9]: binds
